Reference: PubChem BioAssay AID1259415 (National Center for Advancing Translational Sciences (NCATS), 2018)
The campaign covered roughly 410,000 compounds. About 18,000 (4.4%) were called active. Inconclusive results, whose numbers are uncertain, are shown with a selection of clear calls. Cut-off read from the data, not from the text of the source: active = activity change below about -60%; inconclusive = no clear call, values can overlap the other calls; inactive = above about -39%.

assay: qHTS Assay for inhibitors of the human cytomegalovirus (HCMV); conditions: HFF cells, HCMV-luciferase reporter, 72 h; at 57.5 µM; stronger effect = lower value
Summary of the method: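 Two-dose cell screen: HFF monolayers treated with compounds and infected with luciferase-expressing HCMV at 1 PFU/cell, 72 h at 37C, then lysed for luciferase measurement.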
% is set by controls: 0 for no effect and ±100 for the full control effect.

SMILES | activity change, negative = inhibition
CCCc1ccc2oc(C(=O)N3CCNC(=O)C3CC(=O)OC)c(C)c2c1 (centres undefined) | inactive: 16.7%
Cc1cccc(C(=O)NCCC(=O)N2CCc3ccccc3C2)c1 | inconclusive: -40.8%
O=C(COc1ccccc1)N/N=C/c1sc(=O)n(Cc2cccc(C(=O)O)c2)c1Cl | inconclusive: -44.9%
COC(=O)C1=C(C)NC(=S)NC1/C=C/c1ccccc1 (centres undefined) | inconclusive: -57.1%
COc1ccccc1N1CCN(c2ncnc3c2oc2ccccc23)CC1 | inactive: -20.8%
CC1Cc2cc(S(=O)(=O)N3CCC(C(=O)Nc4ccccn4)CC3)ccc2N1C(=O)C1CCC1 (centres undefined) | active: -72.8%
CCC(C)[C@H]1CNCCN1CC1(c2ccccc2)CC1 (some centres undefined) | inconclusive: -50.3%
CC1CCCCC1NC(=O)c1cc2c(=O)n3ccccc3nc2n1C (centres undefined) | inconclusive: -46.8%
COCCn1c(C)cc(C(=O)CSc2nnnn2C2CCCC2)c1C | inconclusive: 0%
CCOC(=O)c1c(-c2ccc(F)cc2)csc1NC(=O)c1c(-c2ccccc2)noc1C | active: -68.4%
Cc1nc2ccc(NC(=O)c3cncc(Br)c3)cc2s1 | inconclusive: -55.7%
O=C(NN1C(=O)C2C3C=CC([C@@H]2C1=O)C31CC1)c1ccccc1 (some centres undefined) | inactive: 16.6%
O=C(O)c1c(NC(=O)N(CCO)Cc2ccccc2)sc2c1CCCC2 | inconclusive: -40.4%
COc1ccc(-c2cc(C(F)(F)F)n3nc(C(=O)Nc4cc(Cl)cc(Cl)c4)cc3n2)cc1 | inactive: 13.7%
Cc1ccc(SCCN2CCN(Cc3ccccc3)CC2)cc1 | inconclusive: -46.2%
Cc1cc(O)c(-c2cc(C(=O)NCCc3ccc(S(N)(=O)=O)cc3)[nH]n2)cc1C | inconclusive: -42.4%
CCN(CCCNC(=O)c1ccc2c(c1)NC(=O)CN2C)c1cccc(C)c1 | active: -95.1%
CCCCC(=O)Nc1ccccc1C(=O)OCc1cc(=O)n2nc(C3CCCCC3)sc2n1 | inconclusive: -60%
COc1ccccc1NC(=S)N(Cc1ccccn1)Cc1ccccc1Cl | active: -63.2%
NC(=O)c1ccccc1OCc1nc2ccccc2s1 | inactive: 117%
COc1cc(/C=N/N=C2/NC(=O)C(c3ccccc3)S2)ccc1O (centres undefined) | active: -64.9%
O=C(Nc1nnc(-c2ccncc2)o1)c1ccc2ccccc2c1 | active: -94.5%
COc1ccccc1NC(=O)c1c[nH]c2ccccc12 | inactive: 436%

SMILES | activity change, negative = inhibition
Cc1[nH]c(C)c(C(=O)/C=C/c2ccc([N+](=O)[O-])cc2)c1C | active: -101%
OCCNc1ncnc2c1ncn2[C@H]1CN(C2CCCC2)C[C@@H](CO)O1 | inactive: -8.94%
COCCn1nc2ccccc2c1OC | inactive: -0.671%
O=S(=O)(/N=C(/NNS(=O)(=O)c1ccccc1)c1ccccc1)c1ccccc1 | inconclusive: -43.3%
O=C(COc1ccccc1)Nc1cc(NC(=O)COc2ccccc2)cc(C(=O)O)c1 | inactive: -7.98%
CC(=NNC(=S)N1CC2CCC(CC2)C1)c1nccs1 | active: -62.8%
O=C(C[n+]1cccc2ccccc21)c1ccc(Br)cc1 | inactive: 102%
COc1cc(C2C(c3ccccc3)C(c3cc(OC)cc(=O)o3)C2c2ccccc2)oc(=O)c1 (centres undefined) | inconclusive: -40.4%
CC(C)(C)NC(=O)NC(=O)CN1CCN(c2ccc(O)cc2)CC1 | inconclusive: -41.8%
CCOC(=O)c1c(-c2ccc(Br)cc2)csc1NC(=O)c1ccccc1F | inactive: -21.4%
COc1ccc(CN2CCN(S(=O)(=O)c3ccc(NC(C)=O)cc3)CC2)cc1 | inconclusive: -51.9%
O=C(CSCc1ccccc1Cl)NN=C1CCCCCC1 | inactive: 135%
O=[N+]([O-])c1ccc(/C=N/NC2=NS(=O)(=O)c3ccccc32)cc1 | inactive: -17.6%
CC(=O)Nc1cc(-c2ccc(C(=O)NC3CC3)cc2)cn2c(-c3ccc(F)c(Cl)c3)cnc12 | inconclusive: -45.5%
O=C(O)c1cc2nccc(-c3ccc(F)cc3)n2n1 | inconclusive: -47.7%
COc1cc2c(cc1NC(=O)CSCC(=O)O)oc1ccccc12 | inactive: -0.604%
O=C(c1ccc2c(c1)N(Cc1ccc(F)cc1)CCS2)N1CCOCC1 | inconclusive: -56.3%
O=c1cc(N2CCN(c3ccc(F)cc3)CC2)[nH]c(=O)n1-c1ccc(Br)cc1 | inactive: -26.4%
Cn1c(SCc2ccc(C(F)(F)F)cc2)nc2c([nH]c3ccccc32)c1=O | inactive: 52.7%
O=[N+]([O-])c1ccc(N2CCN(c3ccc(Cl)nn3)CC2)cc1NC1CC1 | inactive: -0.914%
CC1CCCCN1CC(O)COCc1ccccc1 (centres undefined) | inconclusive: -40.3%
O=C(Nc1ccc(S(=O)(=O)N2CCCC2)cc1)c1ccc(F)cc1 | inactive: -2.42%
O=C(C1=C[C@H](c2coc3ccccc3c2=O)C[C@H](OCCCCO)O1)N1CCN(Cc2ccccc2)CC1 | inconclusive: -45.5%

Three of the compounds above, as tab-separated lines.
SMILES	activity change, negative = inhibition
CC1CCCCN1CC(O)COCc1ccccc1 (centres undefined)	inconclusive: -40.3%
O=C(Nc1ccc(S(=O)(=O)N2CCCC2)cc1)c1ccc(F)cc1	inactive: -2.42%
O=C(C1=C[C@H](c2coc3ccccc3c2=O)C[C@H](OCCCCO)O1)N1CCN(Cc2ccccc2)CC1	inconclusive: -45.5%

Additional records.

SMILES | activity change, negative = inhibition
Cn1c(=O)c2cc(NC(=S)NC3CCCCC3)ccc2n1Cc1cccc(C(F)(F)F)c1 | active: -70.5%
COc1ccc2[nH]cc(CCNS(=O)(=O)c3ccc(F)cc3)c2c1 | inconclusive: -59%
Cc1ccc(OCCn2cc(/C=C/C(=O)O)c3ccccc32)cc1 | inactive: 23.4%
COc1cc(/C=C/C(=O)OCC(=O)NC(=O)NC(C)(C)C)ccc1O | inconclusive: -48.4%
Nc1ccc(-c2nc3ncccc3o2)cc1 | inconclusive: -47.5%
CN1Cc2c(N3CCOCC3)nc(SCc3ccccc3)c(C#N)c2CC1(C)C | inactive: -21.3%
Cc1cccc(C)c1-n1nnnc1C(c1cc2ccccc2o1)N1CCN(C/C=C/c2ccccc2)CC1 (centres undefined) | active: -61.9%
Cc1ccc(S(=O)(=O)N2CCN(C(=O)N3CCOCC3)C2C(C)C)cc1 (centres undefined) | inactive: 36.5%
C/C(=N/Nc1ccnc2cc(Cl)ccc12)c1ccc(O)cc1 | inconclusive: -56.4%
CC(=O)Nc1cccc(NC(=O)CN2c3cccc4cccc(c34)S2(=O)=O)c1 | inactive: -4.64%
CC1(Cc2ccccc2F)C(=O)Nc2c(Cl)ccc(Cl)c21 (centres undefined) | inactive: -25.6%
Cc1ccc(C(=O)n2c(-c3ccccc3)cnc2SCC(=O)Nc2ccccc2)cc1 | active: -74.3%
O=S(=O)(c1cnc(Cl)c(Cl)c1)N1CCN(c2ncccn2)CC1 | inconclusive: -52.5%
CC1=CN2C(=N)/C(=C/c3ccc(Sc4ccc(Cl)cc4)o3)C(=O)N=C2S1 | inconclusive: -54.3%
CCN(c1cccc2ccccc12)S(=O)(=O)c1cccs1 | inconclusive: 0%
COc1cc(/C=N\NC(=O)c2ccc(C)nc2)ccc1OC(=O)c1ccco1 | inconclusive: -59.2%
CCc1ccccc1NC(=O)c1ccc2c(O)c(S(=O)(=O)c3ccccc3)c(=O)[nH]c2c1 | inactive: -5.21%
O=C(O)CCCCCN1C(=O)/C(=C\c2ccncc2)SC1=S | active: -98.7%
Cn1c(=O)c2c([nH]c(OCc3ccc(Cl)cc3Cl)[n+]2Cc2ccc(F)cc2)n(C)c1=O | inconclusive: -52.6%
Fc1cccc(Cl)c1-c1nnc2ccc3ccccc3n12 | active: -84%
CCC(=O)N1CCCC1(C)C(=O)NCc1ccc(SC)cc1 (centres undefined) | inconclusive: -42.5%
COc1cccc(CN2C(=O)C(C)N(C(=O)c3c(F)cccc3F)c3ccccc32)c1 (centres undefined) | active: -83.2%
COc1ccc(OCC(=O)OCc2cc(=O)n3cc(C)sc3n2)cc1 | inactive: 2.57%

Filtered by structure, the compounds so far containing a tert-butyl group.
SMILES | activity change, negative = inhibition
CC(C)(C)NC(=O)NC(=O)CN1CCN(c2ccc(O)cc2)CC1 | inconclusive: -41.8%
COc1cc(/C=C/C(=O)OCC(=O)NC(=O)NC(C)(C)C)ccc1O | inconclusive: -48.4%

Following part

SMILES | activity change, negative = inhibition
COc1ccc(NC(=O)CN2CCN(S(=O)(=O)c3cccs3)CC2)cc1Cl | inconclusive: -50.8%
CCOC(=O)c1sc2nc(CSc3ccccc3)nc(N3CCC(C(N)=O)CC3)c2c1C | inconclusive: -57.2%
CC(SCc1ccccc1)C(=O)Nc1ccc(F)cc1 (centres undefined) | inconclusive: -43.9%
CC1(C(=O)NCCc2c[nH]c3ccccc23)CCN1CC1CCCCC1 (centres undefined) | active: -63.6%
Cc1nn(-c2ccccc2)c(C)c1C(=O)OCC(=O)Nc1ccccc1F | inactive: 0%
Cc1ccc(Cl)cc1NC(=O)C1CCCCC1C(=O)O (centres undefined) | inactive: -26.8%
COc1ccccc1CNS(=O)(=O)c1ccc(Br)s1 | inconclusive: -44.4%
COc1cc(/C=C2/NC(=O)N(CC(=O)Nc3cccc(C)c3)C2=O)ccc1OCC(N)=O | inactive: -22.2%
c1ccc(C2=NNC(=NCc3ccc4c(c3)OCO4)SC2)cc1 | inactive: -32.3%
CC1CCN(c2ccc(-c3cccc(NC(=O)c4ccco4)c3)nn2)CC1 | inactive: 37.2%
CCOc1ccc(C(=O)C2CCN(C(=O)c3ccc([N+](=O)[O-])cc3)CC2)cc1 | inconclusive: -42%
O=C(COc1ccc2oc3c(c2c1)CCCC3)Nc1ccc(Br)cc1 | inconclusive: -46.2%
O=C(CSc1nnc(Cc2cc(=O)[nH]c(=O)[nH]2)n1-c1ccc(F)cc1)N1CCCCC1 | inactive: 16.8%
CN1CCN(Cc2ccc(Sc3ccc(Cl)cc3)c([N+](=O)[O-])c2)CC1 | active: -71.2%
Fc1ccccc1N=C1NN=C(c2ccccc2)CS1 | active: -98.1%
O=S(=O)(c1ccc(F)cc1)N1CCN(C(=S)NCCc2ccccc2)CC1 | inactive: -19.8%
CN(Cc1nccs1)C(=O)c1cc(COc2cccc3cnccc23)on1 | active: -75.3%
Nc1ccc(C(=O)OCC(=O)c2cccc([N+](=O)[O-])c2)cc1 | inconclusive: -49.6%
CCCCNC(=O)O[C@H]1C[C@@H]2CCN3C(=O)CCC[C@H]([C@H]1CC)[C@H]23 | inconclusive: -59.9%
COc1ccc(-c2cc(C(C)=O)c(C)n2CCC(=O)NCc2ccccc2OC)cc1 | inconclusive: 0%
